# Experimental data from the supplement of paper PMC12067093, “Discovery and optimisation of a covalent ligand for TRIM25 and its application to targeted protein ubiquitination” (Chemical Science, 2025).
# The chains behind the UniProt entries cited, without tags or fusion partners. Where a name states a change or a piece, a line headed by the entry shows the natural chain unless it says otherwise.
# UniProt O60488: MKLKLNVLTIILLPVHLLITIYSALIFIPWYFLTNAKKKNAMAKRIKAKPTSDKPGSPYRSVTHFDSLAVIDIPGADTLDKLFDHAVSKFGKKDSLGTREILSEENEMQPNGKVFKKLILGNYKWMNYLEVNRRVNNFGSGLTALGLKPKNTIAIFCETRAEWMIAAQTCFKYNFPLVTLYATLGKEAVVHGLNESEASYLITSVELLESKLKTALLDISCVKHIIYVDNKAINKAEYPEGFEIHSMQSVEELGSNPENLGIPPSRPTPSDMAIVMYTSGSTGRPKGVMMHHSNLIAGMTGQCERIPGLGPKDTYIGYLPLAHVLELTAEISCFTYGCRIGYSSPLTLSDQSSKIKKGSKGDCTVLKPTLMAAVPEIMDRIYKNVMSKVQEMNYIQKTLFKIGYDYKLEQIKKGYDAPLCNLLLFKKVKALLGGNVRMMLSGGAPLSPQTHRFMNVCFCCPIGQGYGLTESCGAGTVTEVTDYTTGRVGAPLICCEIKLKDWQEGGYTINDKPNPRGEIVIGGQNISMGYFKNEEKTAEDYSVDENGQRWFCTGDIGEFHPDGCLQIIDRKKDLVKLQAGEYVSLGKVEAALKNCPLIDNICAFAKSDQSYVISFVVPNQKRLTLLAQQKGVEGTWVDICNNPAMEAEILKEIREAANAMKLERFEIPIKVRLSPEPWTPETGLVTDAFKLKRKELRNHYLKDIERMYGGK
# UniProt Q9H2P0: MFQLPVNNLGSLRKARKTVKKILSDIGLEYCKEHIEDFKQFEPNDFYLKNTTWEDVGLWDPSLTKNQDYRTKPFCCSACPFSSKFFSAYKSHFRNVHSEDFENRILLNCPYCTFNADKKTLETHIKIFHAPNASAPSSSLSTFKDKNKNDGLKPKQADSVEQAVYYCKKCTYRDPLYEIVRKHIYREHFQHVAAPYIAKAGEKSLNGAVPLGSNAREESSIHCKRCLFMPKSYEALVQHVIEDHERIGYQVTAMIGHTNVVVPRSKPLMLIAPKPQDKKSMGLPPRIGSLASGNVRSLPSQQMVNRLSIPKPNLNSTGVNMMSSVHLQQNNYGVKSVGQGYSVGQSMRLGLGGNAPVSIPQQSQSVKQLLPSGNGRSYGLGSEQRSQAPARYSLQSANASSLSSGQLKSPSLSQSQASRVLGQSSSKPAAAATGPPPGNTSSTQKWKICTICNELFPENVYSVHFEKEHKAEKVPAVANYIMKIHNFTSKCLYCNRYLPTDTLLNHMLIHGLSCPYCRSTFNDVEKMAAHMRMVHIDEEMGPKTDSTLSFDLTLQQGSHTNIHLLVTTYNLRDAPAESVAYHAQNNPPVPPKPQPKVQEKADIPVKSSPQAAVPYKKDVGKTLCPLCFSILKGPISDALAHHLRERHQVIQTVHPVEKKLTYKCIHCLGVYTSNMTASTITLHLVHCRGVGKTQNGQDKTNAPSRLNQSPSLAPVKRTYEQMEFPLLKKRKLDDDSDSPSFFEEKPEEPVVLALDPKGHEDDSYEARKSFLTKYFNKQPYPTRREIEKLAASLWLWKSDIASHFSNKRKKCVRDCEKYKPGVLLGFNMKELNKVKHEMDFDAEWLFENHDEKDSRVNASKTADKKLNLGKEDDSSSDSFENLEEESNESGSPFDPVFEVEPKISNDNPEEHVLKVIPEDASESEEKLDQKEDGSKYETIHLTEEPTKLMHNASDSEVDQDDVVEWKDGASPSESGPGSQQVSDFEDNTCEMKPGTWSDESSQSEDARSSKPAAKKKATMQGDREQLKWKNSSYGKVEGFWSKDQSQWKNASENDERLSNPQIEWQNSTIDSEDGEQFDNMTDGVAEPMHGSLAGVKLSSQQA
# UniProt P35573: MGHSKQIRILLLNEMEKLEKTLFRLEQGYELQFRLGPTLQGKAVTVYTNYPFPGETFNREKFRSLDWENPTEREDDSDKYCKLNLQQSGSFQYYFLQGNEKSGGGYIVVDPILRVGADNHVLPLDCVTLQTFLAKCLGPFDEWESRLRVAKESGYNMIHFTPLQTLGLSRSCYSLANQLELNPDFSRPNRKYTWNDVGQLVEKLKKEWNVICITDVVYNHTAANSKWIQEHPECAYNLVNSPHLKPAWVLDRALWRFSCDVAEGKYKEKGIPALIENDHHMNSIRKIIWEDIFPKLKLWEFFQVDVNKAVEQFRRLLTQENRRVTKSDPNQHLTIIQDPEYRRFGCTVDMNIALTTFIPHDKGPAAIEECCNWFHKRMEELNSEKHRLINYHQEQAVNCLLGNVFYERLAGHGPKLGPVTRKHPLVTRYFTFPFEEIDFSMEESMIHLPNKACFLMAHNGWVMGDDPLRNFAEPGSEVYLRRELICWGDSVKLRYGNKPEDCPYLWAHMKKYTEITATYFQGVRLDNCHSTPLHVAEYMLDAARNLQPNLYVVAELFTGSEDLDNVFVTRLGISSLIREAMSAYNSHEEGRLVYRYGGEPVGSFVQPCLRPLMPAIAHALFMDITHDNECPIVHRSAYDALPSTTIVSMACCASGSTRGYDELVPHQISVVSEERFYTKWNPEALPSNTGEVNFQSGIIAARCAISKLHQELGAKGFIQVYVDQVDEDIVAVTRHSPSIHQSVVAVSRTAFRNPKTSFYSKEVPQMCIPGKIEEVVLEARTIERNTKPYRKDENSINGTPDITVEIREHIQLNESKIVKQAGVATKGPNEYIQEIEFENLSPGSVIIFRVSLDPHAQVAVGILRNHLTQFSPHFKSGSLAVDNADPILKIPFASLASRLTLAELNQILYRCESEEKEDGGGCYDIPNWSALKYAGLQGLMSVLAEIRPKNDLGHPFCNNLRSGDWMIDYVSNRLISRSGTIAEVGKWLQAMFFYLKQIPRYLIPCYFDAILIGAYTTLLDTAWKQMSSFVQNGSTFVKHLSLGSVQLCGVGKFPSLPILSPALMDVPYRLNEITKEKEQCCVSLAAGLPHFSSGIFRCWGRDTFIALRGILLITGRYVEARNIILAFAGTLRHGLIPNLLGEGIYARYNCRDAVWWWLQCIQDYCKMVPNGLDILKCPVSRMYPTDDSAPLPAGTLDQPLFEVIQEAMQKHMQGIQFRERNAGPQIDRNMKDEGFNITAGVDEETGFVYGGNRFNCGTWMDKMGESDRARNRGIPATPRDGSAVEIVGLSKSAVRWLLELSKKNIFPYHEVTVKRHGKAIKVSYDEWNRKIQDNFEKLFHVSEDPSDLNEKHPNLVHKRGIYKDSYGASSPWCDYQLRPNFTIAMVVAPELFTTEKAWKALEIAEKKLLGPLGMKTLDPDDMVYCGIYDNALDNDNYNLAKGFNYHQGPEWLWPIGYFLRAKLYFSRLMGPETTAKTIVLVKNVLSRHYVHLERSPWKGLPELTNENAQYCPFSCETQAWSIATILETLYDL
# UniProt P11766: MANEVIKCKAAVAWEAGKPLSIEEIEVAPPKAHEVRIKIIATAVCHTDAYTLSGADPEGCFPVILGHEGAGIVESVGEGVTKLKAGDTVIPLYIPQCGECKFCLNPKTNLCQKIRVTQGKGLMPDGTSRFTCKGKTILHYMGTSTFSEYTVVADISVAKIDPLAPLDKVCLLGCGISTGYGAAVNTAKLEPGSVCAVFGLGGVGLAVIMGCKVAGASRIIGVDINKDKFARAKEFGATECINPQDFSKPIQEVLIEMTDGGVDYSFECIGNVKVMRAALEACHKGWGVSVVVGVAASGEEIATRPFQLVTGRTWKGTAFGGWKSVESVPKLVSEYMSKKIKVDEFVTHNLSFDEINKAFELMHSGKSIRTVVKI
# UniProt Q9Y4W6: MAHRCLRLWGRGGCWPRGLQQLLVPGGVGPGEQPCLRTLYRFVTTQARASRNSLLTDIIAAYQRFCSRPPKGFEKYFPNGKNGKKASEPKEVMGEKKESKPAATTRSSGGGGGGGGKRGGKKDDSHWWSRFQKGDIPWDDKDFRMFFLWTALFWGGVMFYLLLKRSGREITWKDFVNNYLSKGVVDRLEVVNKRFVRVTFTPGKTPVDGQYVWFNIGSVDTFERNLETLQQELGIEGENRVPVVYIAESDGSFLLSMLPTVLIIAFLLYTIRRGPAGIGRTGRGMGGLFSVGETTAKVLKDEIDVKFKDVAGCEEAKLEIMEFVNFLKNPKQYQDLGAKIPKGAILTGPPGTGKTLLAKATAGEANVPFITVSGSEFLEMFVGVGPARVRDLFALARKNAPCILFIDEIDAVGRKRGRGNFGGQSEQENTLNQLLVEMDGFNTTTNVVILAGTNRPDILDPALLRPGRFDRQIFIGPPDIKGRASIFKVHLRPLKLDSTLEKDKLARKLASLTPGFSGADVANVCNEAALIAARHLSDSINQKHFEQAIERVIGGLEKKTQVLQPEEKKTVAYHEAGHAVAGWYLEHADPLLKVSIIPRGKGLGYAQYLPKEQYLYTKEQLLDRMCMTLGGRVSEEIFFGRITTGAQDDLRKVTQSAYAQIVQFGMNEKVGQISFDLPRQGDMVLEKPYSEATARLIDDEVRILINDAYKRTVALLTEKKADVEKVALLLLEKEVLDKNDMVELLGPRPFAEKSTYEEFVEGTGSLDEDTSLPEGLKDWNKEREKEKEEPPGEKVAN
# UniProt Q9NR19, whole entry, looked up: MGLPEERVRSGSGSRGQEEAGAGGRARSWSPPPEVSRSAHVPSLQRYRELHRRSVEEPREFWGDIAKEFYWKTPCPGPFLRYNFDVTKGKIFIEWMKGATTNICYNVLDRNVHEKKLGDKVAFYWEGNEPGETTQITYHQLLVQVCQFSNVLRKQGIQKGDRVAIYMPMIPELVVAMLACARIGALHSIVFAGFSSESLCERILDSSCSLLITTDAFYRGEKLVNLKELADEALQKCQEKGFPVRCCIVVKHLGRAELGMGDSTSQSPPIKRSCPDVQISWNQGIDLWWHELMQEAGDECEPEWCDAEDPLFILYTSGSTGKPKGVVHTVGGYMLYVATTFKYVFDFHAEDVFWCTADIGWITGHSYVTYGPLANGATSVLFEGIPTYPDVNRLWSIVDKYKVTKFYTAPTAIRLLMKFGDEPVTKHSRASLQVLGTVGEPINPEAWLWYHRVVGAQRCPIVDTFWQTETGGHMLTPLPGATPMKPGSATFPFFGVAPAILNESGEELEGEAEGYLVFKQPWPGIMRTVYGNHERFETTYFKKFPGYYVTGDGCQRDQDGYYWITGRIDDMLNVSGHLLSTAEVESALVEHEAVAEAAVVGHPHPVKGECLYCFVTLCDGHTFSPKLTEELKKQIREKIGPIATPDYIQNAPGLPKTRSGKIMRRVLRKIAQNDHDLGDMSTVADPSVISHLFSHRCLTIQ
# UniProt P55263: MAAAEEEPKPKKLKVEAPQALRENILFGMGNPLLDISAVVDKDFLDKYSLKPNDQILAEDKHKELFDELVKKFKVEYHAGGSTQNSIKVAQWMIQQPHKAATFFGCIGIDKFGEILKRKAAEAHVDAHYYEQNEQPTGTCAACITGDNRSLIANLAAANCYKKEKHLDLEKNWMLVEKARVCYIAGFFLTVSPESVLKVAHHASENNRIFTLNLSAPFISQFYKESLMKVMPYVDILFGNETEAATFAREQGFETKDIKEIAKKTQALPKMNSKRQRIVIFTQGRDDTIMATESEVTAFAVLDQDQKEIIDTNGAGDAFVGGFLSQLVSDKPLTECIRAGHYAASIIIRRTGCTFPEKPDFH
# UniProt P33121: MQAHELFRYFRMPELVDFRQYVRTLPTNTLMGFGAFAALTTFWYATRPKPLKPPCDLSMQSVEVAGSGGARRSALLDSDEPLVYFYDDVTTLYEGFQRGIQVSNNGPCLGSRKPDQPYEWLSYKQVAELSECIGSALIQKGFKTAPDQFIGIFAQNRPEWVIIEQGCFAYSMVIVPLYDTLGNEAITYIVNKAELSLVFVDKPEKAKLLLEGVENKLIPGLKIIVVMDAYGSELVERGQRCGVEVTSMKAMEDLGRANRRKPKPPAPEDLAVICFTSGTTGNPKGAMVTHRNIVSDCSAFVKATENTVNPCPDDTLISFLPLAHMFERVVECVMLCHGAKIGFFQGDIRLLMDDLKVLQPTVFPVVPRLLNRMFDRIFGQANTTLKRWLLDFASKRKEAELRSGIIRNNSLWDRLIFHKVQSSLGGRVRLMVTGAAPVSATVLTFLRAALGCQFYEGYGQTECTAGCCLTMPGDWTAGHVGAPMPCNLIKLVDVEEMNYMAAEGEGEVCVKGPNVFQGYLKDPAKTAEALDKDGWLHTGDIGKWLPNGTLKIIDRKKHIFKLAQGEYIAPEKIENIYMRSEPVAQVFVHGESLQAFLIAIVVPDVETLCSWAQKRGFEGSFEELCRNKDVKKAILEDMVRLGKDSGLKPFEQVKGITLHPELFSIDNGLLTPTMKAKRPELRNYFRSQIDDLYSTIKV
# The other results are listed elsewhere or left out.
# Compound: Cc1cc(ccc1-c1ccccc1)C(=O)N1CCCN(CC1)C(=O)CCl [compound 10]
# Assay: probe-labelled cysteine peptide fold change vs DMSO (competition) (log2 fold change); higher = less target engagement (more negative = stronger competition)
# Conditions: THP-1, incubation time: 4 h
# 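Further: competitive profiling in live THP-1 cells: cysteine peptides tagged with an iodoacetamide desthiobiotin (IA-DTB) probe, intensity after compound treatment relative to DMSO-treated cells.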
Target,probe-labelled cysteine peptide fold change (10 µM),probe-labelled cysteine peptide fold change (50 µM)
ADSS_P30520_182_MCDLVSDFDGFSER (UniProt P30520),0.103,0.121
ACSL4_O60488_170_AEWMIAAQTCFK (UniProt O60488),0.0551,0.409
ACSL4_O60488_595_NCPLIDNICAFAK (UniProt O60488),-0.108,-0.126
ADNP_Q9H2P0_79_TKPFCCSACPFSSK (UniProt Q9H2P0),-0.0136,0.0646
AGL_P35573_212_EWNVICITDVVYNHTAANSK (UniProt P35573),0.0898,0.132
AGFG1_P52594_32_CFDCDQR (UniProt P52594),-0.00729,-0.0176
ADD2_P35612_224_CIIHLHTPATAAVSAMK (UniProt P35612),0.107,0.0189
ADH5_P11766_103_FCLNPK (UniProt P11766),-0.0749,-0.577
AGL_P35573_767_EVPQMCIPGKIEEVVLEAR (UniProt P35573),-0.292,-0.537
AFG3L2_Q9Y4W6_313_DVAGCEEAK (UniProt Q9Y4W6),-0.0431,0.29
AFG3L2_Q9Y4W6_525_LASLTPGFSGADVANVCNEAALIAAR (UniProt Q9Y4W6),-0.126,-0.0308
ACSS2_Q9NR19_554_KFPGYYVTGDGCQR (UniProt Q9NR19),-0.00411,0.0226
ADK_P55263_160_SLIANLAAANCYKK (UniProt P55263),-0.309,-1.01
AFG3L2_Q9Y4W6_313_DVAGCEEAKLEIMEFVNFLK (UniProt Q9Y4W6),-0.324,-0.391
ACSL1_P33121_336_VVECVMLCHGAK (UniProt P33121),0.15,-0.464
ADAM17_P78536_333_VCLAHLFTYQDFDMGTLGLAYVGSPR (UniProt P78536),-0.0733,0.266
ADK_P55263_353_TGCTFPEKPDFH (UniProt P55263),-0.0352,-0.472
